Results reported in publication doi:10.1101/2022.09.08.506647.
Results are given in words; binding and its absence hold for the method and conditions named. Binding seen in cells or lysates may run through a third protein. Here binding means that the protein was enriched with, or labelled near, the bait; the list need not be complete. Blank lines part the entries; values can stand above or below the molecule they belong to.

Chains of the proteins cited; added tags and fusions are not shown.
UniProt P78344: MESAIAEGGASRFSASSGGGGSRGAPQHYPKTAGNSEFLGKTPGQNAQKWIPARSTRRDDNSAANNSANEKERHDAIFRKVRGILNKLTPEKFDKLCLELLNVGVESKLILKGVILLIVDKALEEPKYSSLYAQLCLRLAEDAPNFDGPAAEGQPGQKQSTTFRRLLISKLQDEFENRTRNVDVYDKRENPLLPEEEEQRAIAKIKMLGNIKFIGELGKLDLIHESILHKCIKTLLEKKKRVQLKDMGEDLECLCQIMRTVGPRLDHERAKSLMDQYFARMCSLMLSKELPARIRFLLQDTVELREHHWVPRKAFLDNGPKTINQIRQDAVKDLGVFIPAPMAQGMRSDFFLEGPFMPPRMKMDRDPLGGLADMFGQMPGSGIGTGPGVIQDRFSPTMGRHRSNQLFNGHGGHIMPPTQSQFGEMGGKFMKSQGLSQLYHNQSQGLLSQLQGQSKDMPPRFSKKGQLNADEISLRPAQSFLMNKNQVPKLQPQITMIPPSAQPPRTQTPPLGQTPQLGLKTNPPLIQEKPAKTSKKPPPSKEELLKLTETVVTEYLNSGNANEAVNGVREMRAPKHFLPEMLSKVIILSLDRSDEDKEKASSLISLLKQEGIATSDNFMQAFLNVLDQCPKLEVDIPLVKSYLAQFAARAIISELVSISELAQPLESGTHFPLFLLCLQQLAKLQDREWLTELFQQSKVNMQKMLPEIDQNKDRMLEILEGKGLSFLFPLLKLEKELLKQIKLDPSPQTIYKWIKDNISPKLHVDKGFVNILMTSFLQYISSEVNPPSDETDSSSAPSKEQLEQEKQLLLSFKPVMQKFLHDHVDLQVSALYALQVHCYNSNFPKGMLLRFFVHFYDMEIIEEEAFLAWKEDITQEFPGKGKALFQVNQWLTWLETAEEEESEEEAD

Target: T1, DEAD-box helicase 1 (DDX1), endogenous (human (endogenous in KELLY and IMR5/75)) (UniProt Q92499)
T1 sequence: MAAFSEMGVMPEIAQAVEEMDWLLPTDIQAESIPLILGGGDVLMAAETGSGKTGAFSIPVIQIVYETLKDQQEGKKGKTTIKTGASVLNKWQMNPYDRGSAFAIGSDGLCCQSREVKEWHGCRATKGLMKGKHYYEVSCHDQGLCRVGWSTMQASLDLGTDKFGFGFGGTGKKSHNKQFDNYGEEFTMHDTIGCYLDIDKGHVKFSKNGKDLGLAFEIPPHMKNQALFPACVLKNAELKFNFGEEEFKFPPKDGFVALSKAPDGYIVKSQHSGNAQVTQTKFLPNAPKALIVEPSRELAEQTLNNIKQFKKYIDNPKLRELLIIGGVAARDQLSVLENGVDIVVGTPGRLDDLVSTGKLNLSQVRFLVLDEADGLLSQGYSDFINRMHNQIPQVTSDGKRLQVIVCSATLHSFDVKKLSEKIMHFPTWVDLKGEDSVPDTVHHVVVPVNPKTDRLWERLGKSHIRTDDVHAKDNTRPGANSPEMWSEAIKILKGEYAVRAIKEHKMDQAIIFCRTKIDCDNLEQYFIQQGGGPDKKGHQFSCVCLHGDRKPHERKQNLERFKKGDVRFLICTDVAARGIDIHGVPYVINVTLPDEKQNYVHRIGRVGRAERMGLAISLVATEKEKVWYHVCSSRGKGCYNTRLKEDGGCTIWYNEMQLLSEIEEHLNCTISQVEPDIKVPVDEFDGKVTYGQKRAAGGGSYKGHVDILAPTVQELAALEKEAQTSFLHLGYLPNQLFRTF
Test: affinity purification with mass spectrometry

binding: binds
Molecule: eIF4G2, endogenous (from UniProt P78344 1-907)

binding: binds
B1: DLD, endogenous (protein, UniProt P09622 36-509)
chain: ADQPIDADVTVIGSGPGGYVAAIKAAQLGFKTVCIEKNETLGGTCLNVGCIPSKALLNNSHYYHMAHGKDFASRGIEMSEVRLNLDKMMEQKSTAVKALTGGIAHLFKQNKVVHVNGYGKITGKNQVTATKADGGTQVIDTKNILIATGSEVTPFPGITIDEDTIVSSTGALSLKKVPEKMVVIGAGVIGVELGSVWQRLGADVTAVEFLGHVGGVGIDMEISKNFQRILQKQGFKFKLNTKVTGATKKSDGKIDVSIEAASGGKAEVITCDVLLVCIGRRPFTKNLGLEELGIELDPRGRIPVNTRFQTKIPNIYAIGDVVAGPMLAHKAEDEGIICVEGMAGGAVHIDYNCVPSVIYTHPEVAWVGKSEEQLKEEGIEYKVGKFPFAANSRAKTNADTDGMVKILGQKSTDRVLGAHILGPGAGEMVNEAALALEYGASCEDIARVCHAHPTLSEAFREANLAASFGKSINF
